The numbers were not newly measured in US5320825A, “Serotonin reuptake inhibitors for S.P.E.C.T. imaging” (Trustees of the University of Pennsylvania, priority 1991, dated 1994), which cites them from elsewhere.

The structures appear in SMILES notation.

The target of series [1] is serotonin reuptake system (5-HT). The note with it: read-out: Inhibition of monoamine uptake, 5-HT (Ki); cited from earlier work.
Series [2] concerns the target norepinephrine (NE) reuptake system. Particulars: rat synaptosomes; read-out: Inhibition of monoamine uptake, NE (Ki); cited from earlier work.

As a reminder, the Ki is a dissociation constant, usually derived from enzyme kinetics or from competition with a known ligand. Regarding `CN1Cc2c(N)cccc2C(c2ccccc2)C1` (centres unmarked) [Nomifensine], the Ki in series [1] is 5000 nM; in series [2], 5 nM.
